Data published in patent publication US20210230599.

Protein sequences, listed by entry. Tags and fused reporters are not part of them. Residues count along the entry.
UniProt P10145, 28-99: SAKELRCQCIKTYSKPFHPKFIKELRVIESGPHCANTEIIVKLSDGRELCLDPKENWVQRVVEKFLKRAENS

Target: Interleukin-8 (IL8, CXCL8), C-terminal His-tagged (Homo sapiens) (UniProt P10145)
Assay: binding assay
Settings: 2'-F G, 2'-OMe A/C/U, 5' C6NH2, 3' idT; TR-FRET, 5 nM IL8, protein-limited; bead flow 20 nM; purified recombinant protein; protein details: C-terminal 6xHis (Sino Biological); label: Alexa Fluor 647

**Q.** For “UACGGUGGGAAAUGUGAGAUGGGUUGCCGUAUUUU [Aptamer 8]”, which Kd is on record?
**A.** 2 nM
